Source: ChEMBL document CHEMBL3988442, “University of Dundee, Small-Polar-MMV Screening Library” (2021).

Each number is a percent effect as filed.
The record does not define 0% and 100%; most values in the screen are far below 50% and negative numbers occur (in some assays of this library far below -100).
The compounds are a random part of those screened.

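Viability assay of Plasmodium falciparum sporozoites; the read-out is not stated. The concentration is filed as 10 mM, unlikely as a test dose, so the dose is not known. The record gives no direction; compounds that gave an IC50 in retests scored well above the rest, so higher reads as lower viability. Strong results were mostly tested again. Of about 34,000 compounds tested this way, about 280 (0.84%) reached 50% or more in at least one test.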

SMILES: [H][C@]12OCCC[C@]1([H])N(C(=O)c1ccccn1)C[C@H]2OCc1cccnc1
percent effect: -5.839%

SMILES: Cc1nn(C)c(C)c1C1CCCN1CC(=O)Nc1ccc(Cl)cn1 (stereo unspecified)
percent effect: 13.14%

SMILES: CN1C(=O)CC(c2ccccc2)C12CCN(CC1CCOCC1)CC2.O=C(O)C(F)(F)F (stereo unspecified)
percent effect: -4.291%

SMILES: CN(C)c1ncccc1CN1CCOC(C(=O)Nc2ccccc2)C1 (stereo unspecified)
percent effect: -2.109%

SMILES: COCCN1C(=O)CCC12CCN(C(=O)CC1CC1)CC2
percent effect: 9.171%

SMILES: Cc1noc(C2CCN(Cn3cc(Br)cn3)CC2)n1
percent effect: 8.391%

SMILES: O=C(O)C(F)(F)F.O=C(O)C(F)(F)F.[H][C@@]12OCCN(CC3CC3)[C@@]1([H])CC[C@H]2OCCCn1cccn1
percent effect: 16.19%

SMILES: COCc1ccc(CNCc2c(C)nn(C)c2N(C)C)cc1
percent effect: 17.64%

SMILES: CCN1CC(C(=O)NCc2ccccc2-n2cccn2)CC1=O (stereo unspecified)
percent effect: -12.49%

SMILES: c1cncc(-c2noc(CN3CCCC3Cn3cccn3)n2)c1 (stereo unspecified)
percent effect: 6.507%

SMILES: CN(C)c1nccnc1C1CCCN(c2cnccn2)C1 (stereo unspecified)
percent effect: 4.726%

SMILES: Cc1cnn(CCNCC(=O)NC(C)c2ccc3c(c2)OCCO3)c1 (stereo unspecified)
percent effect: 4.684%

SMILES: O=C(O)c1ccccc1-c1ccc(CN2CC(O)C2)cc1
percent effect: -3.472%

SMILES: CN(C(=O)COC1CCCC1)C1CCN(CC2CCOC2)CC1 (stereo unspecified)
percent effect: -4.57%

SMILES: Cc1nc(C(C)(C)C)sc1C(=O)NCCNc1ncccn1
percent effect: -7.81%

SMILES: Cc1cccc(CN2CCn3cc(CNC(=O)CC4CC4)nc3C2)n1
percent effect: 8.586%

SMILES: CCOCCC(=O)N1CCN(CC(C)O)CC1 (stereo unspecified)
percent effect: -4.563%

SMILES: [H][C@@]12CN(Cc3ccc(C)c(F)c3F)C[C@]1(C(=O)O)CN(CC1CC1)C2=O
percent effect: 1.065%

SMILES: O=C(O)C(F)(F)F.O=C(O)C(F)(F)F.[H][C@]12C[C@@H](C(=O)Nc3cccnc3)CO[C@@]1([H])CCN(c1ncc(F)cn1)C2
percent effect: -2.706%

SMILES: O=C(O)C(F)(F)F.O=C(O)C(F)(F)F.[H][C@@]12CN(CCOC)CC[C@]1([H])CN(Cc1cccnc1OC)C2
percent effect: -5.736%

SMILES: COC(=O)Cn1ccc(NS(=O)(=O)c2ccc3c(c2)CCC3)n1
percent effect: 0.5263%

SMILES: C[C@H]1CN(c2ccccn2)C[C@@]12CCN(c1cccnc1)C2=O.O=C(O)C(F)(F)F.O=C(O)C(F)(F)F
percent effect: 6.932%

SMILES: O=C(c1cnc(C2CC2)nc1)N1CCCC(c2nccs2)C1 (stereo unspecified)
percent effect: 4.985%

SMILES: CC(C)COc1cncc(N2CCCN(c3ncccn3)CC2)n1
percent effect: -21.37%

SMILES: Cc1cccc2nc(CSCC(=O)Nc3nnc(C(C)C)s3)cc(=O)n12
percent effect: 2.238%

SMILES: Cc1cc(C(=O)N2CCCC2c2c(C)nn(C)c2C)no1 (stereo unspecified)
percent effect: 5.518%

SMILES: [H][C@@]12C[C@H](C(=O)Nc3cccnc3)[C@@]([H])(CN(C(=O)NC3CCCC3)C1)O2
percent effect: -9.6%

SMILES: FC(F)(F)c1[nH]nc2c1CN(Cc1ccccc1)CC2
percent effect: -3.448%

SMILES: CN(CCCC1CCCO1)S(=O)(=O)NCc1ccccc1 (stereo unspecified)
percent effect: -14.62%

SMILES: CC1(C)CCC(C(=O)N2CCCO2)c2ccccc21 (stereo unspecified)
percent effect: 9.677%

SMILES: COCCN1CCOCC12CCN(C(=O)c1ccncc1)CC2.O=C(O)C(F)(F)F
percent effect: -4.875%

SMILES: CCOc1cc(C(=O)N2CCCC(c3nc(C)c(C)s3)C2)ccn1 (stereo unspecified)
percent effect: 12.81%

SMILES: CN(Cc1ccsc1)C(=O)Nc1ccc(S(C)(=O)=O)nc1
percent effect: 4.852%

SMILES: CC(=O)N1CCC(n2ccc(-c3cnc(N4CCOCC4)nc3)n2)CC1
percent effect: 9.06%